{
  "source": "patent US9284543B2",
  "about": "“Neutral active soluble truncated PH20 polypeptides and uses thereof” (Halozyme, Inc., priority 2008, dated 2016)",
  "molecules": {"B1": {"name": "SPAM1-FLKP: C-terminally truncated human PH20, precursor 471 aa (SEQ ID NO:29), mature 436 aa (SEQ ID NO:81) (protein, listed as Homo sapiens)", "chain 1": "MGVLKFKHIFFRSFVKSSGVSQIVFTFLLIPCCLTLNFRAPPVIPNVPFLWAWNAPSEFCLGKFDEPLDMSLFSFIGSPRINATGQGVTIFYVDRLGYYPYIDSITGVTVNGGIPQKISLQDHLDKAKKDITFYMPVDNLGMAVIDWEEWRPTWARNWKPKDVYKNRSIELVQQQNVQLSLTEATEKAKQEFEKAGKDFLVETIKLGKLLRPNHLWGYYLFPDCYNHHYKKPGYNGSCFNVEIKRNDDLSWLWNESTALYPSIYLNTQQSPVAATLYVRNRVREAIRVSKIPDAKSPLPVFAYTRIVFTDQVLKFLSQDELVYTFGETVALGASGIVIWGTLSIMRSMKSCLLLDNYMETILNPYIINVTLAAKMCSQVLCQEQGVCIRKNWNSSDYLHLNPDNFAIQLEKGGKFTVRGKPTLEDLEQFSEKFYCSCYSTLSCKEKADVKDTDAVDVCIADGVCIDAFLKP", "chain 2": "LNFRAPPVIPNVPFLWAWNAPSEFCLGKFDEPLDMSLFSFIGSPRINATGQGVTIFYVDRLGYYPYIDSITGVTVNGGIPQKISLQDHLDKAKKDITFYMPVDNLGMAVIDWEEWRPTWARNWKPKDVYKNRSIELVQQQNVQLSLTEATEKAKQEFEKAGKDFLVETIKLGKLLRPNHLWGYYLFPDCYNHHYKKPGYNGSCFNVEIKRNDDLSWLWNESTALYPSIYLNTQQSPVAATLYVRNRVREAIRVSKIPDAKSPLPVFAYTRIVFTDQVLKFLSQDELVYTFGETVALGASGIVIWGTLSIMRSMKSCLLLDNYMETILNPYIINVTLAAKMCSQVLCQEQGVCIRKNWNSSDYLHLNPDNFAIQLEKGGKFTVRGKPTLEDLEQFSEKFYCSCYSTLSCKEKADVKDTDAVDVCIADGVCIDAFLKP", "modifications": "HuPH20 precursor 1-471; Mature HuPH20 36-471"}, "B2": {"name": "N82A: PH20sHis N-glycosylation site mutant N82A, SEQ ID NO:202 (protein)", "chain": "MGVLKFKHIFFRSFVKSSGVSQIVFTFLLIPCCLTLNFRAPPVIPNVPFLWAWNAPSEFCLGKFDEPLDMSLFSFIGSPRIAATGQGVTIFYVDRLGYYPYIDSITGVTVNGGIPQKISLQDHLDKAKKDITFYMPVDNLGMAVIDWEEWRPTWARNWKPKDVYKNRSIELVQQQNVQLSLTEATEKAKQEFEKAGKDFLVETIKLGKLLRPNHLWGYYLFPDCYNHHYKKPGYNGSCFNVEIKRNDDLSWLWNESTALYPSIYLNTQQSPVAATLYVRNRVREAIRVSKIPDAKSPLPVFAYTRIVFTDQVLKFLSQDELVYTFGETVALGASGIVIWGTLSIMRSMKSCLLLDNYMETILNPYIINVTLAAKMCSQVLCQEQGVCIRKNWNSSDYLHLNPDNFAIQLEKGGKFTVRGKPTLEDLEQFSEKFYCSCYSTLSCKEKADVKDTDAVDVCIADGVCIDAFLKPPMETEEPQIFYNASPSTLSHHHHHH", "modifications": "His tag; PH20sHis N82A"}, "B3": {"name": "N166A: PH20sHis N-glycosylation site mutant N166A, SEQ ID NO:203 (protein)", "chain": "B2 chain with A82N, N166A", "modifications": "His tag; PH20sHis N166A"}, "B4": {"name": "N235A: PH20sHis N-glycosylation site mutant N235A, SEQ ID NO:204 (protein)", "chain": "B2 chain with A82N, N235A", "modifications": "His tag; PH20sHis N235A"}, "B5": {"name": "SPAM1-VASL: full length human PH20, precursor 509 aa (SEQ ID NO:1), mature 474 aa (SEQ ID NO:108) (protein, listed as Homo sapiens)", "chain": "MGVLKFKHIFFRSFVKSSGVSQIVFTFLLIPCCLTLNFRAPPVIPNVPFLWAWNAPSEFCLGKFDEPLDMSLFSFIGSPRINATGQGVTIFYVDRLGYYPYIDSITGVTVNGGIPQKISLQDHLDKAKKDITFYMPVDNLGMAVIDWEEWRPTWARNWKPKDVYKNRSIELVQQQNVQLSLTEATEKAKQEFEKAGKDFLVETIKLGKLLRPNHLWGYYLFPDCYNHHYKKPGYNGSCFNVEIKRNDDLSWLWNESTALYPSIYLNTQQSPVAATLYVRNRVREAIRVSKIPDAKSPLPVFAYTRIVFTDQVLKFLSQDELVYTFGETVALGASGIVIWGTLSIMRSMKSCLLLDNYMETILNPYIINVTLAAKMCSQVLCQEQGVCIRKNWNSSDYLHLNPDNFAIQLEKGGKFTVRGKPTLEDLEQFSEKFYCSCYSTLSCKEKADVKDTDAVDVCIADGVCIDAFLKPPMETEEPQIFYNASPSTLSATMFIVSILFLIISSVASL", "modifications": "Human PH20 cDNA encoding amino acids 1-509"}, "B6": {"name": "SPAM1-PPME: C-terminally truncated human PH20, precursor 474 aa (SEQ ID NO:26), mature 439 aa (SEQ ID NO:78) (protein, listed as Homo sapiens)", "chain 1": "MGVLKFKHIFFRSFVKSSGVSQIVFTFLLIPCCLTLNFRAPPVIPNVPFLWAWNAPSEFCLGKFDEPLDMSLFSFIGSPRINATGQGVTIFYVDRLGYYPYIDSITGVTVNGGIPQKISLQDHLDKAKKDITFYMPVDNLGMAVIDWEEWRPTWARNWKPKDVYKNRSIELVQQQNVQLSLTEATEKAKQEFEKAGKDFLVETIKLGKLLRPNHLWGYYLFPDCYNHHYKKPGYNGSCFNVEIKRNDDLSWLWNESTALYPSIYLNTQQSPVAATLYVRNRVREAIRVSKIPDAKSPLPVFAYTRIVFTDQVLKFLSQDELVYTFGETVALGASGIVIWGTLSIMRSMKSCLLLDNYMETILNPYIINVTLAAKMCSQVLCQEQGVCIRKNWNSSDYLHLNPDNFAIQLEKGGKFTVRGKPTLEDLEQFSEKFYCSCYSTLSCKEKADVKDTDAVDVCIADGVCIDAFLKPPME", "chain 2": "LNFRAPPVIPNVPFLWAWNAPSEFCLGKFDEPLDMSLFSFIGSPRINATGQGVTIFYVDRLGYYPYIDSITGVTVNGGIPQKISLQDHLDKAKKDITFYMPVDNLGMAVIDWEEWRPTWARNWKPKDVYKNRSIELVQQQNVQLSLTEATEKAKQEFEKAGKDFLVETIKLGKLLRPNHLWGYYLFPDCYNHHYKKPGYNGSCFNVEIKRNDDLSWLWNESTALYPSIYLNTQQSPVAATLYVRNRVREAIRVSKIPDAKSPLPVFAYTRIVFTDQVLKFLSQDELVYTFGETVALGASGIVIWGTLSIMRSMKSCLLLDNYMETILNPYIINVTLAAKMCSQVLCQEQGVCIRKNWNSSDYLHLNPDNFAIQLEKGGKFTVRGKPTLEDLEQFSEKFYCSCYSTLSCKEKADVKDTDAVDVCIADGVCIDAFLKPPME", "modifications": "HuPH20 precursor 1-474; Mature HuPH20 36-474"}, "B7": {"name": "SPAM1-KPPM: C-terminally truncated human PH20, precursor 473 aa (SEQ ID NO:27), mature 438 aa (SEQ ID NO:79) (protein, listed as Homo sapiens)", "chain 1": "MGVLKFKHIFFRSFVKSSGVSQIVFTFLLIPCCLTLNFRAPPVIPNVPFLWAWNAPSEFCLGKFDEPLDMSLFSFIGSPRINATGQGVTIFYVDRLGYYPYIDSITGVTVNGGIPQKISLQDHLDKAKKDITFYMPVDNLGMAVIDWEEWRPTWARNWKPKDVYKNRSIELVQQQNVQLSLTEATEKAKQEFEKAGKDFLVETIKLGKLLRPNHLWGYYLFPDCYNHHYKKPGYNGSCFNVEIKRNDDLSWLWNESTALYPSIYLNTQQSPVAATLYVRNRVREAIRVSKIPDAKSPLPVFAYTRIVFTDQVLKFLSQDELVYTFGETVALGASGIVIWGTLSIMRSMKSCLLLDNYMETILNPYIINVTLAAKMCSQVLCQEQGVCIRKNWNSSDYLHLNPDNFAIQLEKGGKFTVRGKPTLEDLEQFSEKFYCSCYSTLSCKEKADVKDTDAVDVCIADGVCIDAFLKPPM", "chain 2": "LNFRAPPVIPNVPFLWAWNAPSEFCLGKFDEPLDMSLFSFIGSPRINATGQGVTIFYVDRLGYYPYIDSITGVTVNGGIPQKISLQDHLDKAKKDITFYMPVDNLGMAVIDWEEWRPTWARNWKPKDVYKNRSIELVQQQNVQLSLTEATEKAKQEFEKAGKDFLVETIKLGKLLRPNHLWGYYLFPDCYNHHYKKPGYNGSCFNVEIKRNDDLSWLWNESTALYPSIYLNTQQSPVAATLYVRNRVREAIRVSKIPDAKSPLPVFAYTRIVFTDQVLKFLSQDELVYTFGETVALGASGIVIWGTLSIMRSMKSCLLLDNYMETILNPYIINVTLAAKMCSQVLCQEQGVCIRKNWNSSDYLHLNPDNFAIQLEKGGKFTVRGKPTLEDLEQFSEKFYCSCYSTLSCKEKADVKDTDAVDVCIADGVCIDAFLKPPM", "modifications": "HuPH20 precursor 1-473; Mature HuPH20 36-473"}, "B8": {"name": "SPAM1-LKPP: C-terminally truncated human PH20, precursor 472 aa (SEQ ID NO:28), mature 437 aa (SEQ ID NO:80) (protein, listed as Homo sapiens)", "chain 1": "MGVLKFKHIFFRSFVKSSGVSQIVFTFLLIPCCLTLNFRAPPVIPNVPFLWAWNAPSEFCLGKFDEPLDMSLFSFIGSPRINATGQGVTIFYVDRLGYYPYIDSITGVTVNGGIPQKISLQDHLDKAKKDITFYMPVDNLGMAVIDWEEWRPTWARNWKPKDVYKNRSIELVQQQNVQLSLTEATEKAKQEFEKAGKDFLVETIKLGKLLRPNHLWGYYLFPDCYNHHYKKPGYNGSCFNVEIKRNDDLSWLWNESTALYPSIYLNTQQSPVAATLYVRNRVREAIRVSKIPDAKSPLPVFAYTRIVFTDQVLKFLSQDELVYTFGETVALGASGIVIWGTLSIMRSMKSCLLLDNYMETILNPYIINVTLAAKMCSQVLCQEQGVCIRKNWNSSDYLHLNPDNFAIQLEKGGKFTVRGKPTLEDLEQFSEKFYCSCYSTLSCKEKADVKDTDAVDVCIADGVCIDAFLKPP", "chain 2": "LNFRAPPVIPNVPFLWAWNAPSEFCLGKFDEPLDMSLFSFIGSPRINATGQGVTIFYVDRLGYYPYIDSITGVTVNGGIPQKISLQDHLDKAKKDITFYMPVDNLGMAVIDWEEWRPTWARNWKPKDVYKNRSIELVQQQNVQLSLTEATEKAKQEFEKAGKDFLVETIKLGKLLRPNHLWGYYLFPDCYNHHYKKPGYNGSCFNVEIKRNDDLSWLWNESTALYPSIYLNTQQSPVAATLYVRNRVREAIRVSKIPDAKSPLPVFAYTRIVFTDQVLKFLSQDELVYTFGETVALGASGIVIWGTLSIMRSMKSCLLLDNYMETILNPYIINVTLAAKMCSQVLCQEQGVCIRKNWNSSDYLHLNPDNFAIQLEKGGKFTVRGKPTLEDLEQFSEKFYCSCYSTLSCKEKADVKDTDAVDVCIADGVCIDAFLKPP", "modifications": "HuPH20 precursor 1-472; Mature HuPH20 36-472"}},
  "key": {"CHO-S cells [1]": {"tested_on": "CHO-S cells", "test": "Western blot analysis of PH20 expression in media and cells after transient expression", "format": "cell-based, Chinese Hamster", "conditions": "band at approximately 66 kDa", "summary_of_the_method": "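PH20 expression and solubility were judged by anti-PH20 Western blot of non-reduced media and cell fractions, with expression shown by a ~66 kDa band. Samples came from CHO-S cells transiently transfected (GeneJuice) with mutant PH20-HZ24 DNA and cultured 48-72 h. GPI-anchored mutants were cleaved with PI-PLC to release soluble protein.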"}, "CHO-S cells [2]": {"tested_on": "CHO-S cells", "test": "Secretion of N-glycan site specific deglycosylation mutants into the media (Western blot)", "format": "cell-based, Chinese Hamster", "conditions": "expressed in CHO-S cells, secretion into the media"}},
  "note": "Residue numbers refer to the chain shown, from its start. In names and notes the source's numbering stands.",
  "data": [
    {"molecule": "B1", "values": [
      {"measurement": "Protein Expression", "setting": "CHO-S cells [1]", "result": "YES"}
    ]},
    {"molecule": "B2", "values": [
      {"measurement": "Secretion", "setting": "CHO-S cells [2]", "result": "YES"},
      {"measurement": "Secretion", "setting": "CHO-S cells [2]; listed as N82", "result": "no effect on secretion"}
    ]},
    {"molecule": "B3", "values": [
      {"measurement": "Secretion", "setting": "CHO-S cells [2]", "result": "YES"},
      {"measurement": "Secretion", "setting": "CHO-S cells [2]; listed as N166", "result": "no effect on secretion"}
    ]},
    {"molecule": "B4", "values": [
      {"measurement": "Secretion", "setting": "CHO-S cells [2]", "result": "YES"},
      {"measurement": "Secretion", "setting": "CHO-S cells [2]; listed as N235", "result": "no effect on secretion"}
    ]},
    {"molecule": "B5", "values": [
      {"measurement": "Protein Expression", "setting": "CHO-S cells [1]", "result": "YES"}
    ]},
    {"molecule": "B6", "values": [
      {"measurement": "Protein Expression", "setting": "CHO-S cells [1]", "result": "YES"}
    ]},
    {"molecule": "B7", "values": [
      {"measurement": "Protein Expression", "setting": "CHO-S cells [1]", "result": "YES"}
    ]},
    {"molecule": "B8", "values": [
      {"measurement": "Protein Expression", "setting": "CHO-S cells [1]", "result": "YES"}
    ]}
  ]
}
